Results are given in words; binding and its absence hold for the method and conditions named. In cells and extracts the contact can be indirect. Some entries that bind do so weakly or less than the wild type. For some assays here: Where a sequence is shown, tags or fusion partners need not be part of it.

By UniProt entry, the sequences of proteins in these tests, tags left out.
UniProt P62258: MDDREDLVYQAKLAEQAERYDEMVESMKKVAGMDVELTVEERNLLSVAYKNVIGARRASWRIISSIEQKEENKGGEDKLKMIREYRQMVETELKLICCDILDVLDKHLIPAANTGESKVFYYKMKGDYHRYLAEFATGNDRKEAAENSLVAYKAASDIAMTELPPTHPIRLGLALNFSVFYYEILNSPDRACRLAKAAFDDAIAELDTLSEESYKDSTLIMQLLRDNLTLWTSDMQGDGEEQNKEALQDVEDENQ
UniProt P62259: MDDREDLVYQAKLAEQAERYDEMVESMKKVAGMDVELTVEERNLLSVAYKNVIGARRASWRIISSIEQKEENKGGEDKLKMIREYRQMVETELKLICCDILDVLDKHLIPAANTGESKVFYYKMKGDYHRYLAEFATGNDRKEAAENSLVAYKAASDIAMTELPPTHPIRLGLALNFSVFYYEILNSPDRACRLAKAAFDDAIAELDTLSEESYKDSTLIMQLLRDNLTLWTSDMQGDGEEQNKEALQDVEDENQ

The values below come from article PMC7996975.

The target of one test is T1, Myc-RIG-I (UniProt O95786).
T1 sequence: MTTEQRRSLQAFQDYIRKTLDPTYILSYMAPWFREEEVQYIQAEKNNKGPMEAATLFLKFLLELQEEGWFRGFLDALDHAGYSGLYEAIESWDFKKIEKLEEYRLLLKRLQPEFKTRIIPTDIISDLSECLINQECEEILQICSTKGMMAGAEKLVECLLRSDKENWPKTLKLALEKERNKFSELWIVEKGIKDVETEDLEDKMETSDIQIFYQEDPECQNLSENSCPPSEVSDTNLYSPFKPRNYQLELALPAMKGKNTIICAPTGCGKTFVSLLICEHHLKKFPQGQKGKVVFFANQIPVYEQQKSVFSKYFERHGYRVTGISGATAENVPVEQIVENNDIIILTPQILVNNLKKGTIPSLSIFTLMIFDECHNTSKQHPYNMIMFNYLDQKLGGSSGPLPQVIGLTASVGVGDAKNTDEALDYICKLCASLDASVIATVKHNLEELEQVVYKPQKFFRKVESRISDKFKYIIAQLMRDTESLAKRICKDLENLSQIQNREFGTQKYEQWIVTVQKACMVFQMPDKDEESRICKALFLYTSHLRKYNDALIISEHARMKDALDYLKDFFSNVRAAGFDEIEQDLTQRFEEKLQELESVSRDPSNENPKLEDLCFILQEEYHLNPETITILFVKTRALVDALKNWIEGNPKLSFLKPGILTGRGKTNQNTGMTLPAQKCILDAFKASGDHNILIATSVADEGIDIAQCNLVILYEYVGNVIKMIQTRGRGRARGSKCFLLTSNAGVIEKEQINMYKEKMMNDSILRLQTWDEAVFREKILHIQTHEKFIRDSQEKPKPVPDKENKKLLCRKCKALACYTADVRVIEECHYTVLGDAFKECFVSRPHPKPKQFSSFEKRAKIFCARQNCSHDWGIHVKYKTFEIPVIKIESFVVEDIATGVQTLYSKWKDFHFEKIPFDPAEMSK
Briefly: co-IP.

The target in test [1] is T2, endogenous RIG-I of MEFs (mouse (endogenous in MEFs)) (UniProt Q6Q899).
T2 sequence: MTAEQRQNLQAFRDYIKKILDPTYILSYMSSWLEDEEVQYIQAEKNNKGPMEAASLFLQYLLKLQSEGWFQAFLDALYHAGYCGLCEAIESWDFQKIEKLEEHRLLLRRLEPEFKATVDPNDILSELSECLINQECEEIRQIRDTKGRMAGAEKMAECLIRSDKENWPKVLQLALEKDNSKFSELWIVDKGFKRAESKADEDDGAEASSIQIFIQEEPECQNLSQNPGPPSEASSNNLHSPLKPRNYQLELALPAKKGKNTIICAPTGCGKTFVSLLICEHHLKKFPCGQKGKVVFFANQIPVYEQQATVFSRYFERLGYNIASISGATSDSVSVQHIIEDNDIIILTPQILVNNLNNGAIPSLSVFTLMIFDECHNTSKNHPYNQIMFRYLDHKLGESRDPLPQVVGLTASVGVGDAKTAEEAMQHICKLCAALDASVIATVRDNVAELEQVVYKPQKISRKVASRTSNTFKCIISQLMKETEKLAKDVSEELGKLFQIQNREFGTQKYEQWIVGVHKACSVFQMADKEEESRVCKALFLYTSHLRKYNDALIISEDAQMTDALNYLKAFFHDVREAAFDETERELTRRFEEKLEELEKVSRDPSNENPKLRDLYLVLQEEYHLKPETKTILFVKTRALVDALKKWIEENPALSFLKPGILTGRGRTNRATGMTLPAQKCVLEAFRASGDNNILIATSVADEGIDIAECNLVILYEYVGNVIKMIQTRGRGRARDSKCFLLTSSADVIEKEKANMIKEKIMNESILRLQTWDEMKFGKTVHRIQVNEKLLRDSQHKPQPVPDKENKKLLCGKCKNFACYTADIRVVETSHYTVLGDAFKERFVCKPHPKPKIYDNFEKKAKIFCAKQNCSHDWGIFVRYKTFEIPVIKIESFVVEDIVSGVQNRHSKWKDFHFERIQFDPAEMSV
Briefly: co-IP.

In the case of “endogenous 14-3-3ε of HEK-293T cells (from UniProt P62258 1-255)”, the binding entry with Myc-RIG-I was “binds”.

As to “endogenous 14-3-3ε of MEFs (from UniProt P62259 1-255)”, in test [1], the binding entry is recorded as “binds”.
